Some results were stated once for a whole list of compounds, not compound by compound.
Test system: Galium
Assay: Post-emergence test
Format: in vivo
Details: 30 g/ha, after three weeks

CS(=O)(=O)Nc1cc(N2C(=O)C3=C(CCCC3)C2=O)c(F)cc1C#N [Example 1, N-(4-cyano-2-fluoro-5-methylsulphonylaminophenyl)-3,4,5,6-tetrahydrophthalimide]
degree of damage to the plants, % damage in comparison to untreated control: 90-95%

— patent US6395683B1, “Heterocyclylbenzonitriles” (Bayer Aktiengesellschaft, priority 1994, dated 2002)
